Data reported in publication PMC6937562.
Results are given in words; binding and its absence hold for the method and conditions named. Some binding calls cover weakened binding; strength is not graded here.

Protein sequences, listed by entry. Tags and fused reporters are not part of them. Lines headed by an entry give the natural chain unless they say otherwise; changes in a name come on top. Residues count along the entry.
UniProt P01024: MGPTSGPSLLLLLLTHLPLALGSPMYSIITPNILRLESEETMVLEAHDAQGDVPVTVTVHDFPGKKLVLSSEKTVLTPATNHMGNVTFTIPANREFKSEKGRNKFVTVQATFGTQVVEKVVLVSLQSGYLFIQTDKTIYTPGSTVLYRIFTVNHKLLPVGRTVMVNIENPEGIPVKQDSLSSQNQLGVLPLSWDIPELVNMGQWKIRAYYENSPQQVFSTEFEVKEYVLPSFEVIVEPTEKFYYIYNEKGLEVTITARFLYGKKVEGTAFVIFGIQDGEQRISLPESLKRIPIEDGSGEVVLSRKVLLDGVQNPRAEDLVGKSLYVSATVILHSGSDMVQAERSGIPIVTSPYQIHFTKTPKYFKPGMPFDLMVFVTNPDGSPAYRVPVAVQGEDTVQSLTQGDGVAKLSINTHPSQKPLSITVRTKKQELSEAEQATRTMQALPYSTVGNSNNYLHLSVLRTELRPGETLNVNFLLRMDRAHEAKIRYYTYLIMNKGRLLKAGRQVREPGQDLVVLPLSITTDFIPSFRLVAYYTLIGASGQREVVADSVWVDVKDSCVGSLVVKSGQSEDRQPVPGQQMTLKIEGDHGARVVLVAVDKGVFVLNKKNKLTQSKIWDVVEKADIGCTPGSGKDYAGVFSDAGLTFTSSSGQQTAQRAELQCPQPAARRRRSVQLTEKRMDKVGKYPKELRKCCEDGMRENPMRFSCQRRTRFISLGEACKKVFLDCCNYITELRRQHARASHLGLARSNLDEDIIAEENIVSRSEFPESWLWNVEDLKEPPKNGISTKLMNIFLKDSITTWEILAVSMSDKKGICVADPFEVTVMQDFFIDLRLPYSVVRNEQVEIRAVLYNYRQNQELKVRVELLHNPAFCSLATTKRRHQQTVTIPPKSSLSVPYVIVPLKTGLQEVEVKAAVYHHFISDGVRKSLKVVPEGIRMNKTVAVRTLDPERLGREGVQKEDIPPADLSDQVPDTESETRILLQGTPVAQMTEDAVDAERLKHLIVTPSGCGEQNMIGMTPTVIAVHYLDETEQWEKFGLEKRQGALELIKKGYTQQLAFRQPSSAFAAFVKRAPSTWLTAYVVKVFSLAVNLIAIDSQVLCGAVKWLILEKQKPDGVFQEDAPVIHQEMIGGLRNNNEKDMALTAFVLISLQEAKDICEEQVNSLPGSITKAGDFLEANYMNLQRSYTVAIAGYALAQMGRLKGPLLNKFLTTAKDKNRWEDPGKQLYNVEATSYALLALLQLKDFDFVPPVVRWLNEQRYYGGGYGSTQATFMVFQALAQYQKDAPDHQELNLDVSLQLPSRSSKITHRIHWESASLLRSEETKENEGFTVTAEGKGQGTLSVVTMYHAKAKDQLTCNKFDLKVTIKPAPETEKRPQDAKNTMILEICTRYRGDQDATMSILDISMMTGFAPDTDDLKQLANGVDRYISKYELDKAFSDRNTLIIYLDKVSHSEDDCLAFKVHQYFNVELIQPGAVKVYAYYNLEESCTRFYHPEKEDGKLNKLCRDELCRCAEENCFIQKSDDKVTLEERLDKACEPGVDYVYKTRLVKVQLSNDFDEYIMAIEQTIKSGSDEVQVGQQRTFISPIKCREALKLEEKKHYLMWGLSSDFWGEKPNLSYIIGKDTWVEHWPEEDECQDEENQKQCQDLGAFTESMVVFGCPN
UniProt P08603, residues 19-1231: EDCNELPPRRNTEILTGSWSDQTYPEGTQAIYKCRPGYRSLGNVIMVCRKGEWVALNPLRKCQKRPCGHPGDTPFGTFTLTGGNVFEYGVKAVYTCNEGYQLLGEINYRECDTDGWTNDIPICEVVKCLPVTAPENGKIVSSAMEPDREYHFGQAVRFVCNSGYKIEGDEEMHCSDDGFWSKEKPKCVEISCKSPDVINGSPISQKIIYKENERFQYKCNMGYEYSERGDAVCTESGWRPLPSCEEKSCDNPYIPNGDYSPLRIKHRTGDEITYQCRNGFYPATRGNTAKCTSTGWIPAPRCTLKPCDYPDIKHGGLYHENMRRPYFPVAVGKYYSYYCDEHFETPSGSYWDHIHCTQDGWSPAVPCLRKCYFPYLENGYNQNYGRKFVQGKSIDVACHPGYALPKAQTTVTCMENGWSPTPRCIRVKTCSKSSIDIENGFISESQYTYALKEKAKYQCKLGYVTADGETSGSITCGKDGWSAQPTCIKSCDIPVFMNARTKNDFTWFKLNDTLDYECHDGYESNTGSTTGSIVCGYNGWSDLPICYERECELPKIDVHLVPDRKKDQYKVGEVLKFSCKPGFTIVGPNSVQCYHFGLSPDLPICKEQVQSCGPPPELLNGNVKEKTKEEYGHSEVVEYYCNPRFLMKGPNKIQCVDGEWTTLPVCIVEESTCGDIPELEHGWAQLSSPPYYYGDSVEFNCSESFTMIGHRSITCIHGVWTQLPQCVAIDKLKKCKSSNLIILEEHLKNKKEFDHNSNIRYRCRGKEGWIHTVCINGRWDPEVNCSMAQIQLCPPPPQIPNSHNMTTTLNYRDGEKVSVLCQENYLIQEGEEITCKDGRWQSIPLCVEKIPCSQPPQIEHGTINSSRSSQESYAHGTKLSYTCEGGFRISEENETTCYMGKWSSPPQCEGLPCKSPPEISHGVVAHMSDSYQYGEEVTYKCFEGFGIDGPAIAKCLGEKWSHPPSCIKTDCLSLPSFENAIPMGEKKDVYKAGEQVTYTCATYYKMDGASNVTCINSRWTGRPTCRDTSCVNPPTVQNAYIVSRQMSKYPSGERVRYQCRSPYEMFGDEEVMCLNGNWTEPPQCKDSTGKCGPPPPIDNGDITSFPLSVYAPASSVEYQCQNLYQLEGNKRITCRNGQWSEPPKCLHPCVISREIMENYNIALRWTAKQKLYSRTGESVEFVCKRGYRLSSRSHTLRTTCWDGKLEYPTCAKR

Legend:
C3b (human) [1] = target: C3b (human) (UniProt P01024); test: SPR; commercial C1 chip with the same C3b loading and identical reagents as the HJEM2 experiment; FH flowed; not shown; both purified
C3b (human) [2] = target: C3b (human) (UniProt P01024); test: AFM force-distance measurements; FH randomly amine-coupled directly to the SAM on the AFM probe tip; C3b amine-coupled to the SAM on a gold wafer; PBS, laboratory at 22 °C; single (type 3) detachment events; both purified

binding (C3b (human) [1]): binds
binding (C3b (human) [2]): binds
Substance: factor H (from UniProt P08603 19-1231)
